# Primary screen of a compound library

Data taken from ChEMBL document CHEMBL3988442, “University of Dundee, Small-Polar-MMV Screening Library” (2021).

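Whole-parasite assay of Trypanosoma brucei over 72 hours; the read-out is not stated. Concentration: 30 µM. Direction is inferred from retests: higher values go with stronger inhibition. Values scatter widely below zero; nearly all retest evidence comes from the higher of the two concentrations used. About 64,000 compounds were tested under these conditions; 1.5% (about 940) showed 50% or more at least once.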

Values are the deposited “Percent Effect”, in %.
How 0% and 100% were set is not recorded. Most values in the screen are low, and negative values occur.
The compounds are a random part of those screened.

| # | Compound | percent effect |
|---|---|---|
| 1 | `Cc1nc(N)c2ccc(C3CCCN3)nc2n1.Cl` (centres unmarked) | -1.856% |
| 2 | `O=C(CCC1CCCC1)N1CCC(c2ncc3c(n2)CCNC3)CC1` | 5.397% |
| 3 | `Cc1cc(NC(=O)CN2CCN(c3nccs3)C(C)C2)on1` (centres unmarked) | 7.558% |
| 4 | `O=S1(=O)COCCN1Cc1cccc(Cl)c1` | 6.281% |
| 5 | `CCSCCC(=O)Nc1ncn(CC(=O)NCc2ccccc2)n1` | 9.123% |
| 6 | `OC(CNc1ncnc2c1CCNCC2)C(F)(F)F` (centres unmarked) | -18.54% |
| 7 | `COc1ccc(C(=O)NS(=O)(=O)c2ccc(CNC(C)=O)s2)cc1` | -31.81% |
| 8 | `CCc1nnc(CN2CCc3ccc(S(N)(=O)=O)cc32)o1` | -39.3% |
| 9 | `O=C(O)C(F)(F)F.O=C1CCCN1CC1CN(CC2CCOCC2)Cc2nccn2C1` (centres unmarked) | -41.78% |
| 10 | `COCC1CN(Cc2ccoc2)Cc2cn(C)nc21` (centres unmarked) | -10.56% |
| 11 | `CC1CCC(NS(=O)(=O)CC(=O)Nc2ccccc2N2CCCC2)CC1` (centres unmarked) | -18.2% |
| 12 | `CCc1nc(CNc2ccc(C(=O)N3CCSCC3)cc2C)no1` | -6.648% |
| 13 | `Cc1cc(C2CCCN(C(=O)c3c(C)nn4cccnc34)C2)n[nH]1` (centres unmarked) | 10.47% |
| 14 | `Cc1cn2nc(N3CCCC3CC(C)(C)C)sc2n1` (centres unmarked) | -22.86% |
| 15 | `COc1c(C2CCCN2C(=O)c2cccc(C)n2)c(C)nn1C` (centres unmarked) | -0.1971% |
| 16 | `Fc1ccc(CN[C@@H]2COC[C@H]2c2ccc(F)cc2)cc1.O=C(O)CC(O)(CC(=O)O)C(=O)O` | -5.323% |
| 17 | `CCOC1COC2(CCN(CC3CC3)CC2)C1.O=C(O)C(F)(F)F` (centres unmarked) | -14.2% |
| 18 | `COc1ccc2c(c1)CN(Cc1ccco1)C(=O)CCN2CC(C)(C)O` | -23.37% |
| 19 | `CN(C)S(=O)(=O)N1CCN(c2ccnc(N3CCCCC3)n2)CC1` | -12.13% |
| 20 | `Cn1ncc2c1C(COCC1CC1)CN(CC1CC1)C2` (centres unmarked) | -0.2217% |
| 21 | `COCCN(Cc1cnn(C)c1)C(=O)C1CCN(C2CCCCC2)CC1` | 2.216% |
| 22 | `Nc1ccnc(N2CCCC(CCc3ccccc3)(C(=O)O)C2)n1` (centres unmarked) | -29.61% |
| 23 | `O=C(O)C(F)(F)F.O=C(c1ccc(F)cc1)N1CCC2(CC1)CC(N1CCOCC1)C2` | -59.01% |
| 24 | `CCOCCN1CCC(c2cncc(C)n2)CC1` | 2.337% |
| 25 | `COCc1nc(N2CC[C@H](N(C)C)C2)c2cnn(C)c2n1` | -20.03% |
| 26 | `CC(C)(C)c1coc([C@@H]2COCCN2Cc2c[nH]c3ccccc23)n1` | -9.874% |
| 27 | `CN(CCOCC(F)(F)F)CC1CCN(CCO)CC1` | -37.58% |
| 28 | `COc1c(CNCc2cccc(Cn3cccn3)c2)c(C)nn1C` | 9.992% |
| 29 | `COc1cccc(F)c1C(C)NC(=O)NCc1cnc(C)s1` (centres unmarked) | -67.11% |
| 30 | `CCNC(=O)N1CCCC(c2noc(CC)n2)C1` (centres unmarked) | 1.144% |
| 31 | `[H][C@]12CC[C@]([H])(CN(c3ncccn3)C1)N(C(=O)Cn1ccc(=O)cc1)C2` | 11.65% |
| 32 | `CCC(CC)NC(=O)c1cncc(Br)c1` | -42.71% |
| 33 | `CNS(=O)(=O)CCCN1CCCC1c1noc(C2CC2)n1` (centres unmarked) | -49.47% |
| 34 | `CN1C(=O)CC[C@]12CC[C@@H](NCc1ccsc1)CC2.O=C(O)C(F)(F)F` | 8.729% |
| 35 | `Cc1cccc(C(=O)N2CCSCC2)c1NC(=O)c1ccsc1` | -9.435% |
| 36 | `COC(=O)C1=NN2C(=NS(=O)(=O)c3ccccc32)N1` | -74.44% |
| 37 | `COc1cccc(Cc2nnc(SC3CCOC3=O)o2)c1` (centres unmarked) | 24.81% |
| 38 | `COc1cccc(OCC(=O)NS(=O)(=O)c2ccc(C)s2)c1` | -15.52% |
| 39 | `CS(=O)(=O)c1cccc(C(=O)NCC2Cc3ccccc3O2)c1` (centres unmarked) | -48.08% |
| 40 | `CCCN1CCC2(CC1)CN(C(=O)c1cccnc1)c1ccc(F)cc12.O=C(O)C(F)(F)F.O=C(O)C(F)(F)F` | 1.771% |
| 41 | `COc1cccc(CN(C)S(=O)(=O)N2CCOCC2)c1` | 8.996% |
| 42 | `Cc1nc2ccccc2c(=O)n1CCC(=O)N1CCCCCC1` | 7.94% |
| 43 | `CC(C)c1nc(CN(C)C(=O)CCNC(=O)c2ccccc2F)no1` | -54.27% |
| 44 | `O=C(c1cc(Cl)c2c(c1)OCO2)N1CCCC(n2cncn2)C1` (centres unmarked) | 0.8143% |
| 45 | `COCC1CN(C(=O)N2CCCC2)Cc2cnn(CC3CCCC3)c21` (centres unmarked) | -49.36% |
| 46 | `Cc1noc(C)c1CN1CCOCC12CCN(c1cnccn1)CC2.O=C(O)C(F)(F)F` | -24.7% |
| 47 | `CCCc1nc(C)c(C(=O)NS(=O)(=O)c2cccnc2)s1` | -43.3% |
| 48 | `O=C(Nc1cccs1)N1CC(c2nc(C3CC3)no2)C1` | 9.336% |
| 49 | `[H][C@@]12CS(=O)(=O)C[C@]1([H])N(Cc1ccc(CCC)o1)CCN2c1ncccn1` | 19.92% |
| 50 | `Cc1ccc(N2CC(c3nccc(C)n3)C2)nn1` | -20.08% |
| 51 | `CN1CCN(S(=O)(=O)c2ccc(Sc3nccn3C)nc2)CC1` | -69.53% |
| 52 | `O=C(c1cscn1)N1CCc2ncc(Cn3cncn3)n2CC1` | -164.6% |
| 53 | `Cc1cc(N2CCC(C(=O)O)(n3ccc(C(C)(C)C)n3)CC2)nc(N)n1` | -4.191% |
| 54 | `CC(C)(C)NCc1ccc(OCc2ccc3c(c2)OCCO3)cc1.Cl` | -5.64% |
| 55 | `Cc1nocc1C(=O)N1CCOC2(COCCN(CC3CC3)C2)C1` (centres unmarked) | -4.133% |
| 56 | `COCCN(CCOC)C(=O)c1ccn(-c2ccc3ccccn23)n1` | -53.36% |
| 57 | `[H][C@@]12CNC[C@]1([H])CN(C(=O)c1cc(F)cc(F)c1)C2` | 32.95% |
| 58 | `[H][C@@]12OCCN(C(=O)CC3=CCCCC3)[C@@]1([H])CC[C@@H]2OCC` | -23.14% |
| 59 | `Cc1ccc(NC2CCCN(CCCc3ccccc3)C2)nn1` (centres unmarked) | 16.83% |
| 60 | `CCCn1nc(C(=O)NCc2nnc3n2CCC3)ccc1=O` | -43.53% |
| 61 | `CC(C)C1SCC(=O)Nc2c1c(O)nn2C1CCCCC1` (centres unmarked) | -12.49% |
| 62 | `CC(CN1CCCC1=O)NC(=O)c1cc(-c2cccc(Cl)c2)no1` (centres unmarked) | -104.2% |
| 63 | `CN(C)CCNC(=O)c1cc(-c2cnc(N(C)C)nc2)cn1CC1CC1` | 6.193% |
| 64 | `Cc1cc(C)c(CNC(=O)NCc2ccc3c(c2)OCCO3)c(=O)[nH]1` | -24.15% |
| 65 | `COCC(=O)N1CCC2(CC1)CC(OC)CO2` (centres unmarked) | -50.14% |
| 66 | `Cc1[nH]nc2ncc(C(=O)N3CCN(CC(C)C)CC3)cc12` | 47.36% |
| 67 | `O=C(CCc1ccccc1F)N1CCCC(OCc2cccnc2)C1` (centres unmarked) | -15.44% |
| 68 | `CCCNC(=O)N1CCN(Cc2cc(C)no2)CC1` | 19.43% |
| 69 | `Cn1cc(-c2cc(C(F)(F)F)n(CCCN)n2)cn1` | -14.84% |
| 70 | `CCc1cc(CN(Cc2cccnc2)C2CN3CCC2CC3)on1` (centres unmarked) | -9.068% |
| 71 | `COc1cc(CNc2cc(-c3ccoc3C)nn2CCO)ccc1F` | -54.89% |
| 72 | `Cl.O=C(O)C1(Cc2ccc(-c3cccs3)cc2)CCNC1` (centres unmarked) | 15.36% |
| 73 | `CCCNC(=O)Nc1ncc(-c2cccnc2)s1` | 8.518% |
| 74 | `O=C(NCC1(O)CCOc2ccccc21)Nc1ccc2c(c1)OCO2` (centres unmarked) | -9.199% |
| 75 | `COc1ccc(-c2cn[nH]c2)cc1CNC1CCCC1` | -1.705% |
| 76 | `CC(C)c1nnc2ccc(N3CCC(C(=O)O)CC3)nn12` | -40.9% |
| 77 | `CCn1c(C)nnc1CN(C)C1CCN(Cc2nnc(C3CC3)o2)C1` (centres unmarked) | -19.95% |
| 78 | `Cc1nn(C)c(Oc2ccc(Cl)cc2)c1CN1CCOC(CN)C1` (centres unmarked) | -13.41% |
| 79 | `COc1nc2ccn(CCc3scnc3C)c(=O)c2cc1C#N` | 4.262% |
| 80 | `O=C(OCc1ccccc1)C1CCCN1Cc1nc(C2CC2)no1` (centres unmarked) | -44.07% |

Some entries from above, unchanged:

With CC(C)C1SCC(=O)Nc2c1c(O)nn2C1CCCCC1 (centres unmarked) the screen gave -12.49%.
With COCCN(Cc1cnn(C)c1)C(=O)C1CCN(C2CCCCC2)CC1 the screen gave 2.216%.
With O=C(c1cc(Cl)c2c(c1)OCO2)N1CCCC(n2cncn2)C1 (centres unmarked) the screen gave 0.8143%.
With CN1CCN(S(=O)(=O)c2ccc(Sc3nccn3C)nc2)CC1 the screen gave -69.53%.
With CC(C)(C)c1coc([C@@H]2COCCN2Cc2c[nH]c3ccccc23)n1 the screen gave -9.874%.
With COc1ccc(-c2cn[nH]c2)cc1CNC1CCCC1 the screen gave -1.705%.
With COc1ccc(C(=O)NS(=O)(=O)c2ccc(CNC(C)=O)s2)cc1 the screen gave -31.81%.
With O=C(CCC1CCCC1)N1CCC(c2ncc3c(n2)CCNC3)CC1 the screen gave 5.397%.
With Cn1ncc2c1C(COCC1CC1)CN(CC1CC1)C2 (centres unmarked) the screen gave -0.2217%.